From publication PMC12679367 come the findings set out here.

The chains behind the UniProt entries cited, without tags or fusion partners. Residues count along the entry.
UniProt O00217, residues 35-210: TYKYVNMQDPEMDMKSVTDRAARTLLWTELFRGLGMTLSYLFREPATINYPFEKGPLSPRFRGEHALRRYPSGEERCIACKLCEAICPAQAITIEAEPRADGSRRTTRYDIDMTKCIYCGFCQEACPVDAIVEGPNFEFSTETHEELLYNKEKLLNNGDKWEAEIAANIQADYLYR

In this assay the target is T1, wild-type NRF2 from the WT-NRF2 plasmid (UniProt Q16236).
T1 sequence: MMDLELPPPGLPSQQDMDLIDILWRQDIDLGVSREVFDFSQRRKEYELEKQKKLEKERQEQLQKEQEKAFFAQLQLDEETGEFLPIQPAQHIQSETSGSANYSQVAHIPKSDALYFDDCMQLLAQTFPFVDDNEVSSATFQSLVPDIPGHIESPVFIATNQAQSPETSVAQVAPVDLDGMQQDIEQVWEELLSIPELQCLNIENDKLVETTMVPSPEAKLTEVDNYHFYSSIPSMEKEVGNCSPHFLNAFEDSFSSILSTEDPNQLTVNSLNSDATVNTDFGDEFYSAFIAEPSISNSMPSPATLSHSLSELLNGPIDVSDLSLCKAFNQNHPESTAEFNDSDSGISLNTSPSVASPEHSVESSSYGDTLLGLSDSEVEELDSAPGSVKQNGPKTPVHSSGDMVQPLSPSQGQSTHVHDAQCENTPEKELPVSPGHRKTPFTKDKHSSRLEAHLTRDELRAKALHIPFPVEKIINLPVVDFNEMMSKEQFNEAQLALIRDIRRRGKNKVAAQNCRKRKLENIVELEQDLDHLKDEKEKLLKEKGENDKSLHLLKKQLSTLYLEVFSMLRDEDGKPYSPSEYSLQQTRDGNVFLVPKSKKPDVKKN
Kind of assay: co-IP; HEK293T cells transfected with WT-NRF2 or Mut-NRF2 plasmid (Figure 6E); captured by anti-NRF2 antibody with Protein A/G PLUS-Agarose, blot with anti-NDUFS8; NDUFS8/NRF2 ratio quantified, n = 6.

These are yes or no findings as the source states them, for the method shown. Binding seen in cells or lysates may run through a third protein. Some results given as binding are weak or reduced against the parent protein; the word gives no strength.

For “NADH dehydrogenase (ubiquinone) Fe-S protein 8 (NDUFS8) in HEK293T cells (from UniProt O00217 35-210)”, the binding entry was “binds”.
